These results are taken from patent US11857565B2 (priority 2018, dated 2024).

A short description of this data set: general procedure: Fmoc solid-phase peptide synthesis; chlorotrityl resin; D-Series SynPhase Lanterns. To be noted: whole synthesis.

On to “(Boc-N-methyl)propyl-AF-glutamic acid-lysine-propionyl maleimide”, for which the isolated yield (from 0.024 mmol resin, scale 0.024 mmol) is 4%.
As to (Boc-N-methyl)-propyl-AF, the isolated yield was determined as 55%.
Bis(ethyl)-AF: the isolated yield was 57%.
Still for that read-out and setting: the value for Bis(propyl)-AF was 41%; that for (Boc-N-methyl)-pentyl-AF was 25%; that for “(Boc-N-Methyl)-butyl-AF-glutamic acid-lysine-propionyl maleimide” was 29%.
Still for that read-out and setting: the value for Boc-(N-methyl-ethyl)-AF was 32%.
